Results taken from the supplement of paper PMC10849652.
The other results are listed elsewhere or left out.

Protein sequences, listed by entry. Tags and fused reporters are not part of them. Lines headed by an entry give the natural chain unless they say otherwise; changes in a name come on top.
UniProt O43488: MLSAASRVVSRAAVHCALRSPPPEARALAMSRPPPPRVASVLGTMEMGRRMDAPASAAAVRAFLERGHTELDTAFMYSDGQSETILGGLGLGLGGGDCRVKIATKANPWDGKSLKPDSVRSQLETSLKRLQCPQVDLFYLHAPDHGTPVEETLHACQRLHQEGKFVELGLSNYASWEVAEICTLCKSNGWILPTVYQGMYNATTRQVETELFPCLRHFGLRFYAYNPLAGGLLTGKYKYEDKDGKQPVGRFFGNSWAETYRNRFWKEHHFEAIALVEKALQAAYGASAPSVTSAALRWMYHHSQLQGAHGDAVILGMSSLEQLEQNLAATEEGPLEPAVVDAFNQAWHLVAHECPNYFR
UniProt Q6NS38: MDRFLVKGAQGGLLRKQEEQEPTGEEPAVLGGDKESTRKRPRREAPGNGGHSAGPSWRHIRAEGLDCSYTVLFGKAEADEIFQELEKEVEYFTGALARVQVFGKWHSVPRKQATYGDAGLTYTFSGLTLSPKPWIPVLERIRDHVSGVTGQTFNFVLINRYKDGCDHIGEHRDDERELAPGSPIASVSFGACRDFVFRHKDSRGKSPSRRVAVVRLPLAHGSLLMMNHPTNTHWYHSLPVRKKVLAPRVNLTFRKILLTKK
UniProt Q9Y303: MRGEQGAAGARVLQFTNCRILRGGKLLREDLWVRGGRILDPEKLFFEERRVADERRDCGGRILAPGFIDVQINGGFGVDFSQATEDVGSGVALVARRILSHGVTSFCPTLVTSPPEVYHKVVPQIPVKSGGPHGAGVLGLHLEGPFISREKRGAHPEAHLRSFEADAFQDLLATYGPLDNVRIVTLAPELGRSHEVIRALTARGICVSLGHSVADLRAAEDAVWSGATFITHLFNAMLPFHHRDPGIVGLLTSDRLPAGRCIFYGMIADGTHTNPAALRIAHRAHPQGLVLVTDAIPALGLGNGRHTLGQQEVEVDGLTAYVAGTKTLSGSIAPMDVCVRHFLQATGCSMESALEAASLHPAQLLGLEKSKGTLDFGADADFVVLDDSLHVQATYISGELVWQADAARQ
UniProt Q9NP73: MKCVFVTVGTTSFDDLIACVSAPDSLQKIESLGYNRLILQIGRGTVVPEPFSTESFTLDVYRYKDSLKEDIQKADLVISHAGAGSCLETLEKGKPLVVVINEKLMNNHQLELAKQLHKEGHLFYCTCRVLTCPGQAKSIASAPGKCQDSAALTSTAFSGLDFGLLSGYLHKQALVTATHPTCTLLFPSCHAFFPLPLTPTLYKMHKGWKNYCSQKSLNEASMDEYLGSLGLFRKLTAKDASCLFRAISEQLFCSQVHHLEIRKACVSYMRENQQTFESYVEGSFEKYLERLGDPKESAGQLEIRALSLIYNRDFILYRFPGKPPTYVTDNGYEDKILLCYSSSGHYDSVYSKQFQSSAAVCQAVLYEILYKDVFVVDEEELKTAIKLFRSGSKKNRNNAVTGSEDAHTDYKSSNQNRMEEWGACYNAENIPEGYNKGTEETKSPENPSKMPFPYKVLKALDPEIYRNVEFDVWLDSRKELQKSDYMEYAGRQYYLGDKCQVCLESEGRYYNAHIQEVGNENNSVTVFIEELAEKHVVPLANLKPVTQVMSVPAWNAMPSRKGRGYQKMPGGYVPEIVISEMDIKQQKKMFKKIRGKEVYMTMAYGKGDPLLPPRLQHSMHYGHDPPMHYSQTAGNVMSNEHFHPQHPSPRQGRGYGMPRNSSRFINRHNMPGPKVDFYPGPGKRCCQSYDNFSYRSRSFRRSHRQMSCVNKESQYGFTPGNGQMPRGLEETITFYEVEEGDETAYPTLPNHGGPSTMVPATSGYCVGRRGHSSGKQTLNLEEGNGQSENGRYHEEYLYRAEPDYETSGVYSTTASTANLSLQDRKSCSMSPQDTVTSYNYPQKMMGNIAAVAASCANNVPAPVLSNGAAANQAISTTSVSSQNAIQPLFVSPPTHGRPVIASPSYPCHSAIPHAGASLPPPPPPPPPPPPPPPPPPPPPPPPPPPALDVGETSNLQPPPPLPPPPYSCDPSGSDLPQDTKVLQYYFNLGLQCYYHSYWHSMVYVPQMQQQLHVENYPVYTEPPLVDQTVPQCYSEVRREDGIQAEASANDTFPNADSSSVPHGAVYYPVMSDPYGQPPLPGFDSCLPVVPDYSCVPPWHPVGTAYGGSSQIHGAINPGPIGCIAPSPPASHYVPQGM
UniProt Q9UIJ7: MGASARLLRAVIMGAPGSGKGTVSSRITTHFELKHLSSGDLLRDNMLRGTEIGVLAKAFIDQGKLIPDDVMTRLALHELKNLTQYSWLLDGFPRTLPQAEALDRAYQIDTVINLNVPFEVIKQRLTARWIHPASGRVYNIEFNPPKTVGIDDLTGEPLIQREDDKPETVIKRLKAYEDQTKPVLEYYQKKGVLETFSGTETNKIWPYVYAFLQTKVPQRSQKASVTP
UniProt O60266: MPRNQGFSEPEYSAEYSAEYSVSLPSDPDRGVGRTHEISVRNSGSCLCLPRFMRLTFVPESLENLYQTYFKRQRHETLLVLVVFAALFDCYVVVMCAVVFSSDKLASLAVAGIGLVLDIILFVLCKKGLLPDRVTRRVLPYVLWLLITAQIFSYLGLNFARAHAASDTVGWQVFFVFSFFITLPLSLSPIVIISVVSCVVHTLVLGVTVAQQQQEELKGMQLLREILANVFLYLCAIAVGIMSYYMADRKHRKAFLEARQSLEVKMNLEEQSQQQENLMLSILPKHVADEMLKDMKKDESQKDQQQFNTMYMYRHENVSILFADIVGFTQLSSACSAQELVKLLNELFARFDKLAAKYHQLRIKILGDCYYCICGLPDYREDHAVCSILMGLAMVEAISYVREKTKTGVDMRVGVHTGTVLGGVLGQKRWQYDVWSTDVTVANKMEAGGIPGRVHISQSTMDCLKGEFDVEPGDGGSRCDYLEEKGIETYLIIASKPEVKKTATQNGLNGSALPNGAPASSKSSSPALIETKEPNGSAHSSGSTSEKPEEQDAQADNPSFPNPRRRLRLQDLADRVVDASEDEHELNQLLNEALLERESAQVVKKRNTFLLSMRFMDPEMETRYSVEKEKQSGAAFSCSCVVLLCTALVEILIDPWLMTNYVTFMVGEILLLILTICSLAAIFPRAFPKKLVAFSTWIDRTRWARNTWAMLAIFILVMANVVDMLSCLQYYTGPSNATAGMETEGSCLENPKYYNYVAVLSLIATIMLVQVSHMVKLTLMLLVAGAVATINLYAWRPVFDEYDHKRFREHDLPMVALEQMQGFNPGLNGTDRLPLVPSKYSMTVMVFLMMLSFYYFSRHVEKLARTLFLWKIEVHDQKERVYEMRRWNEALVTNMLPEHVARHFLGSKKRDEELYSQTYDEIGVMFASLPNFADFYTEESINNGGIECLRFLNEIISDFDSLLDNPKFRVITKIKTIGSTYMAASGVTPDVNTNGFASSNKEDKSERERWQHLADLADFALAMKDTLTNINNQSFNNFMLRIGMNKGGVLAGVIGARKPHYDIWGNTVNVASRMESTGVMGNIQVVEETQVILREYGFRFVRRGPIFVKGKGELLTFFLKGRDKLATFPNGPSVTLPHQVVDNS
UniProt P04075: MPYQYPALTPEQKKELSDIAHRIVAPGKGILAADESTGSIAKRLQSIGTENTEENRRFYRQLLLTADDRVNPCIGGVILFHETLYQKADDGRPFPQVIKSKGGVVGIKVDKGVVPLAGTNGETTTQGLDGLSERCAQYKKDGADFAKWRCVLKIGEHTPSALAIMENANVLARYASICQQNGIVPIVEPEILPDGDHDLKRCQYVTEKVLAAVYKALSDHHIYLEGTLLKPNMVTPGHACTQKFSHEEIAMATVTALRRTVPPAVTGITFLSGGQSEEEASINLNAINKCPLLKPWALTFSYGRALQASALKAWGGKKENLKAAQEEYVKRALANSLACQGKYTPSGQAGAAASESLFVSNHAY
UniProt P27144: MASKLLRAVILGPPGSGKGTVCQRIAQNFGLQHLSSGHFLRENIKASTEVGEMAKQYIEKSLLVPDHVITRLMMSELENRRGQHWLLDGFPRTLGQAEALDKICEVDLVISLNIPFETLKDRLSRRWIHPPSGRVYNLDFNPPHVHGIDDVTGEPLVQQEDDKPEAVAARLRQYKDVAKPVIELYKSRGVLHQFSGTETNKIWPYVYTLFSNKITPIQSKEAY
UniProt P30566: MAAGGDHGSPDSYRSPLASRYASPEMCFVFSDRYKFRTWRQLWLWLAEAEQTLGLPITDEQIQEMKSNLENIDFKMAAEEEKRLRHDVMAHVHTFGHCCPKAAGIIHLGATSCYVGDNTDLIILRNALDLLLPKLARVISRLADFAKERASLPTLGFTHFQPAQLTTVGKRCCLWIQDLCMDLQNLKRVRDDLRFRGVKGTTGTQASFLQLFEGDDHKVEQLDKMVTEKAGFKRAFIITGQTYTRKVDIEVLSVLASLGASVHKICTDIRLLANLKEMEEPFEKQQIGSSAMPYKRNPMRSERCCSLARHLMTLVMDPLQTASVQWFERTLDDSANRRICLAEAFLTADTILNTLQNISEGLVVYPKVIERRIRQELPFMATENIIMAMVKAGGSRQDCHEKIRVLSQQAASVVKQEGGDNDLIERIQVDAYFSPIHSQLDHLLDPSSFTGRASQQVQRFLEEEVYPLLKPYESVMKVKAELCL
UniProt P30038: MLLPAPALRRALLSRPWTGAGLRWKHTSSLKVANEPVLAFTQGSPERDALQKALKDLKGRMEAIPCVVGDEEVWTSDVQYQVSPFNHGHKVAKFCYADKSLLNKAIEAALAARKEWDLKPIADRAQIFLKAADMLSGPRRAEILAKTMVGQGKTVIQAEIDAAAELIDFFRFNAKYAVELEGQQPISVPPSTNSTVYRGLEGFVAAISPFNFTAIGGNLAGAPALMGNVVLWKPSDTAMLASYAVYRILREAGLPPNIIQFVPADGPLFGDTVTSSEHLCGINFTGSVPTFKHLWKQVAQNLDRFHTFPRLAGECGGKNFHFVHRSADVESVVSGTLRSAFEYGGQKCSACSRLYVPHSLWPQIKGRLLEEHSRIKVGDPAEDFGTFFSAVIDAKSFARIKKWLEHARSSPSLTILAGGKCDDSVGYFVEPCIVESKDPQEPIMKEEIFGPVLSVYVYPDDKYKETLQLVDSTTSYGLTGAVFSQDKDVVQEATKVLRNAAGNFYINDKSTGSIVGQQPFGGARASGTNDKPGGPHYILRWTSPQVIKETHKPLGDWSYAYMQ
UniProt Q96HN2, whole entry, looked up: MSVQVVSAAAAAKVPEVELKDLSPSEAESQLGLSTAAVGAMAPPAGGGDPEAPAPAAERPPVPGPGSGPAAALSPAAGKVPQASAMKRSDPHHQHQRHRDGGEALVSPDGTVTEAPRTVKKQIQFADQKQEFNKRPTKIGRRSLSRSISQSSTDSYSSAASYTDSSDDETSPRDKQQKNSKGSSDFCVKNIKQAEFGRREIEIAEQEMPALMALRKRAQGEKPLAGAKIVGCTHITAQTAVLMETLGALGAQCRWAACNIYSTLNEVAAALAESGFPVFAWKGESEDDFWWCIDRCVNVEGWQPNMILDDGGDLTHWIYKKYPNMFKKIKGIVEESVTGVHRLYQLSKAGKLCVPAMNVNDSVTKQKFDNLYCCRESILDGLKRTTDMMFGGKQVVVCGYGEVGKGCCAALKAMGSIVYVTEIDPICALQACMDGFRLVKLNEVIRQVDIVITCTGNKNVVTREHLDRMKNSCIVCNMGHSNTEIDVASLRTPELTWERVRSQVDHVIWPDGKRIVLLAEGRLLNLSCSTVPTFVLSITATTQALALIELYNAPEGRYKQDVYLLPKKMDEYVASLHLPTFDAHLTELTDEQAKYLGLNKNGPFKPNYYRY
UniProt Q8IZ83: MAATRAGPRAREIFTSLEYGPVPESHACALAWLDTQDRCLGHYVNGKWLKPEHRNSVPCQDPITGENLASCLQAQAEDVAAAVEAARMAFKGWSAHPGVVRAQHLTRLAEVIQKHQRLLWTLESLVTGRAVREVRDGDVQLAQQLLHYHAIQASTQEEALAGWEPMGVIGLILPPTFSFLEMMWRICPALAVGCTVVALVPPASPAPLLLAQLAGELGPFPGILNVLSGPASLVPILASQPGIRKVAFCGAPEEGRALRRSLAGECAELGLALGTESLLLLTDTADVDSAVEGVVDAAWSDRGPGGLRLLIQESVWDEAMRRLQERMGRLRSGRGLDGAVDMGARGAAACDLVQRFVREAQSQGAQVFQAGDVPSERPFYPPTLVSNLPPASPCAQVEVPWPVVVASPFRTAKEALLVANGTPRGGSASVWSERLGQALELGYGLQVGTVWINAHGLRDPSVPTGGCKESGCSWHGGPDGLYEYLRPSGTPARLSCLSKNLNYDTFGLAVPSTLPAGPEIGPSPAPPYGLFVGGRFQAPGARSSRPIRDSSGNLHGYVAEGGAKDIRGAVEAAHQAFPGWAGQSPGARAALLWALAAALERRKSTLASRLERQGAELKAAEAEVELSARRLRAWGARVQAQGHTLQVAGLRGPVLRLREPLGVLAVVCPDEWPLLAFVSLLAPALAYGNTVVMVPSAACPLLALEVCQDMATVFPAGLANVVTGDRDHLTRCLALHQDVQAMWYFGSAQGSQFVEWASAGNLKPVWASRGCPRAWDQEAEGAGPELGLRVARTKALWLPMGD

What was measured:
Experiment in all cases: log2 fold change, soluble protein after heating vs DMSO (PISA); higher = thermal stabilisation; K562 cells, 10 uM, 30 min; active = over 0.2 and 3.5 SD of the protein, either way, in both replicates (recomputed)
[1] = compound: CN1CCN(CCOc2cc(OC3CCOCC3)c3c(Nc4c(Cl)ccc5c4OCO5)ncnc3c2)CC1 [saracatinib]
Summary of the method: (§1)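 For each measurement, 10 μM compound was applied for 30 min to K562 cells at 2×10^6 cells/mL. Aliquots were heated for 3 min across 48°C-58°C, pooled, and extracted in PBS with 0.5% NP-40 at 4°C; the supernatant after 21,000xg for 90 min was soluble protein. This was quantified by TMTpro 16plex LC-MS/MS with channel sums equalised, and thermal stability was reported relative to control samples from duplicates, on a log2 fold-change scale.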

[2] = compound: CN1CCN(c2nc(C3=C(c4c[nH]c5ccccc45)C(=O)NC3=O)c3ccccc3n2)CC1 [sotrastaurin]
Summary of the method: as §1

[3] = compound: CN1CC[C@H](c2c(O)cc(O)c3c(=O)cc(-c4ccccc4Cl)oc23)[C@H](O)C1 [alvocidib]
Summary of the method: as §1

[4] = compound: CN1CCc2c(c3ccccc3n2Cc2ccc(C(=O)NO)cc2)C1 [Tubastatin A]
Summary of the method: as §1

[5] = compound: CNC(=O)C1=CC=CC=C1NC2=NC(=NC=C2Cl)NC3=C(C=C(C=C3)N4CCOCC4)OC
Summary of the method: as §1

[6] = compound: CNC(=O)c1ccc(Nc2ncc(C(F)(F)F)c(NCc3nccnc3N(C)S(C)(=O)=O)n2)cc1 [defactinib]
Summary of the method: as §1

[7] = compound: CNCc1ccc(-c2[nH]c3cc(F)cc4c3c2CCNC4=O)cc1 [rucaparib]
Summary of the method: as §1

[8] = compound: CNc1nc(-c2ccc3c(N)n[nH]c3c2)cc(N2C[C@@H](C(=O)NC3CCCCC3)CC[C@H]2C)n1
Summary of the method: as §1

[9] = compound: COC(=O)N[C@@H](C)CNc1nccc(-c2cn(C(C)C)nc2-c2cc(Cl)cc(NS(C)(=O)=O)c2F)n1 [encorafenib]
Summary of the method: as §1

[10] = compound: COC(=O)[C@H](CCSC)NC(=O)C1=C(C=C(C=C1)NC[C@H](CS)N)C2=CC=CC=C2
Summary of the method: as §1

[11] = compound: COC1=CC=C(C=C1)CN2C=CC3=C2C=C(C=C3)C(=O)NO
Summary of the method: as §1

[12] = compound: CON(C)C(=O)N1N=C(c2cc(F)ccc2F)S[C@@]1(CCCN)c1ccccc1 [filanesib]
Summary of the method: as §1

[13] = compound: CO[C@H]1C[C@@H]2CC[C@@H](C)[C@@](O)(O2)C(=O)C(=O)N2CCCC[C@H]2C(=O)O[C@H]([C@H](C)C[C@@H]2CC[C@H](n3cnnn3)[C@H](OC)C2)CC(=O)[C@H](C)/C=C(\C)[C@@H](O)[C@@H](OC)C(=O)[C@H](C)C[C@H](C)/C=C/C=C/C=C/1C [zotarolimus]
Summary of the method: as §1

[14] = compound: COc1cc(C(=O)O)ccc1NC(=O)[C@@H]1N[C@@H](CC(C)(C)C)[C@](C#N)(c2ccc(Cl)cc2F)[C@H]1c1cccc(Cl)c1F [idasanutlin]
Summary of the method: as §1

[15] = compound: COc1cc(Nc2ncc3c(n2)-c2ccc(Cl)cc2C(c2c(F)cccc2OC)=NC3)ccc1C(=O)O [alisertib]
Summary of the method: as §1

[16] = compound: COc1cc2nc(-c3cc(F)ccc3O)nc(N[C@@H]3CNC[C@H]3C(C)(C)O)c2cc1OC
Summary of the method: as §1

[17] = compound: COc1cc2ncnc(Nc3ccc(F)c(Cl)c3)c2cc1OCCCN1CCOCC1 [gefitinib]
Summary of the method: as §1

[18] = compound: COc1cccc2cc(-c3nc([C@H]4CC[C@H](C(=O)O)CC4)n4ncnc(N)c34)[nH]c12
Summary of the method: as §1

[19] = compound: CS(=O)(=O)CCNCc1ccc(-c2ccc3ncnc(Nc4ccc(OCc5cccc(F)c5)c(Cl)c4)c3c2)o1 [lapatinib]
Summary of the method: as §1

[20] = compound: CS(=O)(=O)N1CCN(Cc2cc3nc(-c4cccc5[nH]ncc45)nc(N4CCOCC4)c3s2)CC1 [pictilisib]
Summary of the method: as §1

Measured: log2 fold change

AKR7A2 (UniProt O43488)
inactive: [1] 0.117 | [2] -0.078 | [3] -0.161 | [4] -0.046 | [5] -0.011 | [6] -0.026 | [7] 0.013 | [8] 0.02 | [9] -0.004 | [10] -0.027 | [11] -0.045 | [12] -0.1 | [13] 0.056 | [14] -0.085 | [15] -0.084 | [16] -0.045 | [17] 0.003 | [18] -0.088 | [19] 0.116 | [20] 0.043

ALKBH2 (UniProt Q6NS38)
inactive: [1] 0.046 | [2] 0.149 | [3] 0.062 | [4] 0.04 | [6] 0.055 | [7] 0.027 | [8] -0.056 | [9] 0.132 | [10] -0.001 | [11] 0 | [12] 0.135 | [13] -0.096 | [14] 0.058 | [15] -0.302 | [16] -0.082 | [17] 0.024 | [18] 0.217 | [19] 0.074 | [20] -0.045

AMDHD2 isoform 3 (UniProt Q9Y303)
inactive: [1] 0.031 | [2] 0.053 | [3] -0.024 | [4] 0.134 | [5] -0.011 | [6] -0.018 | [7] -0.01 | [8] 0.011 | [9] -0.011 | [10] 0 | [11] -0.149 | [12] -0.052 | [13] -0.002 | [14] -0.06 | [15] -0.036 | [16] 0.094 | [17] -0.007 | [18] 0.027 | [19] -0.009 | [20] 0.058

AGK (UniProt Q53H12)
inactive: [1] 0.058 | [2] 0.046 | [3] -0.002 | [4] -0.049 | [5] -0.001 | [6] -0.038 | [7] 0.027 | [8] -0.037 | [9] -0.023 | [10] 0.024 | [11] 0.136 | [12] -0.075 | [13] 0.051 | [14] -0.02 | [15] -0.045 | [16] -0.055 | [17] 0.034 | [18] 0.012 | [19] 0.019 | [20] 0.112

AGFG1 isoform 4 (UniProt P52594)
inactive: [1] 0.039 | [2] -0.055 | [3] -0.086 | [4] -0.033 | [5] 0.001 | [6] 0.01 | [7] -0.041 | [8] -0.048 | [9] 0.065 | [10] -0.048 | [11] 0.247 | [12] 0.001 | [13] 0.021 | [14] -0.042 | [15] -0.001 | [16] 0.048 | [17] 0.016 | [18] -0.027 | [19] 0.015 | [20] -0.045

AMN1 (UniProt Q8IY45)
inactive: [1] 0.011 | [2] -0.095 | [3] 0.081 | [4] 0.167 | [5] 0.038 | [6] -0.28 | [7] -0.135 | [8] 0.017 | [9] 0.026 | [10] 0.197 | [12] -0.043 | [13] 0.052 | [14] -0.001 | [15] -0.121 | [16] -0.057 | [17] 0.108 | [18] 0.029 | [19] 0.059 | [20] 0.133

ALG13 (UniProt Q9NP73)
inactive: [1] 0.01 | [2] -0.12 | [3] -0.129 | [4] 0.045 | [5] 0.016 | [6] -0.035 | [7] -0.002 | [8] 0.035 | [9] 0.016 | [10] 0.021 | [11] 0.016 | [12] -0.008 | [13] 0.008 | [14] -0.059 | [15] -0.036 | [16] -0.011 | [17] 0.068 | [18] 0.05 | [19] -0.022 | [20] 0.072

AK3 (UniProt Q9UIJ7)
inactive: [1] -0.009 | [2] 0.051 | [3] 0.017 | [4] -0.022 | [5] -0.005 | [6] 0.018 | [7] 0 | [8] -0.051 | [9] -0.016 | [10] 0.03 | [11] -0.071 | [12] -0.042 | [13] -0.019 | [14] -0.055 | [15] 0.006 | [16] 0.034 | [17] 0.006 | [18] 0.077 | [19] -0.035 | [20] 0.065

ADCY3 (UniProt O60266)
inactive: [1] 0.036 | [2] -0.028 | [3] -0.105 | [4] 0.046 | [5] -0.076 | [6] -0.025 | [8] 0.008 | [10] 0.13 | [11] -0.06 | [12] 0.079 | [13] 0.018 | [14] -0.028 | [16] 0.111 | [19] -0.009 | [20] 0.071

ALDOA isoform 2 (UniProt P04075)
inactive: [1] 0.007 | [2] 0.027 | [3] -0.021 | [4] -0.017 | [5] 0.128 | [6] 0.026 | [7] -0.024 | [8] -0.006 | [9] -0.017 | [10] 0.029 | [11] 0.045 | [12] -0.051 | [13] -0.015 | [14] 0 | [15] -0.039 | [16] -0.022 | [17] -0.02 | [18] 0.058 | [19] -0.025 | [20] -0.018

AK4 (UniProt P27144)
inactive: [1] 0.018 | [2] 0.003 | [3] -0.035 | [4] -0.02 | [5] -0.063 | [6] -0.023 | [7] -0.035 | [8] 0.014 | [9] 0.002 | [10] -0.036 | [11] 0.003 | [12] -0.057 | [13] -0.009 | [14] -0.071 | [15] 0.017 | [16] 0.023 | [17] -0.011 | [18] 0.059 | [19] -0.068 | [20] 0.047

ADSL (UniProt P30566)
inactive: [1] 0.04 | [2] 0.05 | [3] -0.005 | [4] -0.028 | [5] -0.052 | [6] -0.015 | [7] -0.033 | [8] -0.025 | [9] -0.019 | [10] 0.033 | [11] 0.02 | [12] -0.033 | [13] -0.031 | [14] 0.009 | [15] -0.04 | [16] 0 | [17] 0.006 | [18] 0.066 | [19] 0 | [20] 0.016

AGO3 (UniProt Q9H9G7)
inactive: [1] -0.054 | [2] -0.066 | [3] 0.224 | [4] -0.041 | [5] 0 | [6] 0.06 | [7] 0.169 | [8] 0.038 | [9] 0.059 | [10] 0.063 | [11] -0.053 | [12] 0.059 | [13] -0.099 | [14] 0.044 | [15] -0.165 | [16] 0.022 | [17] 0.003 | [18] -0.041 | [19] 0.05 | [20] -0.062

ALDH4A1 (UniProt P30038)
inactive: [1] 0.028 | [2] 0.047 | [3] -0.091 | [4] -0.034 | [5] 0.003 | [6] -0.006 | [7] 0.064 | [8] 0.034 | [9] -0.01 | [10] -0.004 | [11] 0.05 | [12] -0.144 | [13] 0.064 | [14] -0.037 | [15] 0.044 | [16] -0.028 | [17] 0.028 | [18] 0.043 | [19] 0.007 | [20] 0.038

2 successive records from above, for reference:
AK3 (UniProt Q9UIJ7)
inactive: [1] -0.009 | [2] 0.051 | [3] 0.017 | [4] -0.022 | [5] -0.005 | [6] 0.018 | [7] 0 | [8] -0.051 | [9] -0.016 | [10] 0.03 | [11] -0.071 | [12] -0.042 | [13] -0.019 | [14] -0.055 | [15] 0.006 | [16] 0.034 | [17] 0.006 | [18] 0.077 | [19] -0.035 | [20] 0.065

ADCY3 (UniProt O60266)
inactive: [1] 0.036 | [2] -0.028 | [3] -0.105 | [4] 0.046 | [5] -0.076 | [6] -0.025 | [8] 0.008 | [10] 0.13 | [11] -0.06 | [12] 0.079 | [13] 0.018 | [14] -0.028 | [16] 0.111 | [19] -0.009 | [20] 0.071

Following part:

AHCYL2 (UniProt Q96HN2)
inactive: [1] 0.012 | [2] 0.014 | [3] 0.078 | [4] -0.093 | [5] 0.037 | [6] 0.017 | [7] -0.037 | [8] -0.013 | [9] -0.059 | [10] 0.011 | [11] 0.02 | [12] -0.058 | [13] -0.002 | [14] -0.096 | [15] -0.016 | [16] 0.041 | [17] 0.043 | [18] 0.028 | [19] -0.013 | [20] 0.075

ALDH16A1 (UniProt Q8IZ83)
inactive: [1] 0 | [2] 0.026 | [3] -0.026 | [4] 0.026 | [5] -0.039 | [6] -0.03 | [7] -0.068 | [8] -0.026 | [9] -0.051 | [10] -0.004 | [11] -0.01 | [12] -0.057 | [13] -0.018 | [14] -0.091 | [15] -0.027 | [16] 0.013 | [17] 0.009 | [18] 0.057 | [19] -0.013 | [20] 0.086
